Laboratory results taken from PMC5983026, “Intraring allostery controls the function and assembly of a hetero-oligomeric class II chaperonin” (The FASEB Journal, 2018).
Results are given in words; binding and its absence hold for the method and conditions named. Some results given as binding are weak or reduced against the parent protein; the word gives no strength. Sequences can lack the tags named with a protein.

T1: Thermoplasma acidophilum thermosome α subunit, wild type, with intraloop His6-tag (Thermoplasma acidophilum) (UniProt P48424)
T1 sequence: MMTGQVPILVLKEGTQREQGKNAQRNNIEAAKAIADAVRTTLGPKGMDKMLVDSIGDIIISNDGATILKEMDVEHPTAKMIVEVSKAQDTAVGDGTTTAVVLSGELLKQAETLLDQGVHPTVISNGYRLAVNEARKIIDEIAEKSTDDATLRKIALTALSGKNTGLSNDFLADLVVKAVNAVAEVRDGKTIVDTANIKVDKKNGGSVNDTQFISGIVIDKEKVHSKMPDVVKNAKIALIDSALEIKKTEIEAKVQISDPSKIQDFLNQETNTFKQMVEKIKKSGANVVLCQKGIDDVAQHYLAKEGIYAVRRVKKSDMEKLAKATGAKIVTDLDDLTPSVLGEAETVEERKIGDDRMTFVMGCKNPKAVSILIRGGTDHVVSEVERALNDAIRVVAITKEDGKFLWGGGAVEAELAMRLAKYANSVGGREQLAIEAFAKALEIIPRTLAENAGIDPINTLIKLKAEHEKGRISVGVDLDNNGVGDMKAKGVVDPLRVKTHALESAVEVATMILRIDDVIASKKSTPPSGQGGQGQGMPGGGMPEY

T2: Thermoplasma acidophilum thermosome α subunit D94A, with intraloop His6-tag (Thermoplasma acidophilum) (UniProt P48424)
T2 sequence: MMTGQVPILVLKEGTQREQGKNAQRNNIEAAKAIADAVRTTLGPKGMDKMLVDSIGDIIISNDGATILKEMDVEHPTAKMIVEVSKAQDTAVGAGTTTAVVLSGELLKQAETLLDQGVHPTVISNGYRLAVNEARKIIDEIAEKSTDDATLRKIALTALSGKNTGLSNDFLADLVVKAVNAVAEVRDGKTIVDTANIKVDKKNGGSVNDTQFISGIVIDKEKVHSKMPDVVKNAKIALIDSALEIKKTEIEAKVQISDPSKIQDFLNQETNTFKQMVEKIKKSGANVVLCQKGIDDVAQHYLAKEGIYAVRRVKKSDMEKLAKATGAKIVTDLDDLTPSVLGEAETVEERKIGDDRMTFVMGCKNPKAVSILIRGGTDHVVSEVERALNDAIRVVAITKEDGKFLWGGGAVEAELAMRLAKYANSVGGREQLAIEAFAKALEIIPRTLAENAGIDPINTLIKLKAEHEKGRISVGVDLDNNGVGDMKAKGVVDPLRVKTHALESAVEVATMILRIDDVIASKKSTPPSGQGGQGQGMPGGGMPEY

T3: Thermoplasma acidophilum thermosome α subunit T157A, with intraloop His6-tag (Thermoplasma acidophilum) (UniProt P48424)
T3 sequence: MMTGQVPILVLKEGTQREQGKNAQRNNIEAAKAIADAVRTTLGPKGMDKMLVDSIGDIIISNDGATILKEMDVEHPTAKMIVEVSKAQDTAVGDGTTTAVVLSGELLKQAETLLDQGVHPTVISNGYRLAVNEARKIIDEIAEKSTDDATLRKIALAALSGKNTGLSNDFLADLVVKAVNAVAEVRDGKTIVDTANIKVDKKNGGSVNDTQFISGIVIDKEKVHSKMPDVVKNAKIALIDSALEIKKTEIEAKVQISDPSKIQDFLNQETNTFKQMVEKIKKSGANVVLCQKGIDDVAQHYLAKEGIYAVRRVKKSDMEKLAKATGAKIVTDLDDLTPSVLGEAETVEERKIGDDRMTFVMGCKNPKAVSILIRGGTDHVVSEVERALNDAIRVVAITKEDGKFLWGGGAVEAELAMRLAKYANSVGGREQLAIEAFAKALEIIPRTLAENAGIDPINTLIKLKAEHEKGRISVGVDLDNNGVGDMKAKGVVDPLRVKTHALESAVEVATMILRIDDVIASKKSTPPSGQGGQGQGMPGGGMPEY


Columns and labels:
Experiment in all cases: SEC + native gel or EMSA; α (intraloop His6) and β co-expressed in E. coli; complexes purified to homogeneity as in ref. 29; integrity by Superose 6 Increase SEC (main peak ≅950 kDa) and native-PAGE 3–12% (≅1 MDa); subunit composition by Tris-Acetate SDS-PAGE (7%) of the purified proteins; both purified
[1] = target: T1, Thermoplasma acidophilum thermosome α subunit, wild type, with intraloop His6-tag (Thermoplasma acidophilum)
[2] = target: T2, Thermoplasma acidophilum thermosome α subunit D94A, with intraloop His6-tag (Thermoplasma acidophilum)
[3] = target: T3, Thermoplasma acidophilum thermosome α subunit T157A, with intraloop His6-tag (Thermoplasma acidophilum)

Row | binding [1] | binding [2] | binding [3] | Binder
1 | binds | binds | binds | Thermoplasma acidophilum thermosome β subunit, wild type (protein, UniProt P48425 1-543) MIAGQPIFILKEGTKRESGKDAMKENIEAAIAISNSVRSSLGPRGMDKMLVDSLGDIVITNDGVTILKEMDVEHPAAKMMVEVSKTQDSFVGDGTTTAVIIAGGLLQQAQGLINQNVHPTVISEGYRMASEEAKRVIDEISTKIGADEKALLLKMAQTSLNSKSASVAKDKLAEISYEAVKSVAELRDGKYYVDFDNIQVVKKQGGAIDDTQLINGIIVDKEKVHPGMPDVVKDAKIALLDAPLEIKKPEFDTNLRIEDPSMIQKFLAQEENMLREMVDKIKSVGANVVITQKGIDDMAQHYLSRAGIYAVRRVKKSDMDKLAKATGASIVSTIDEISSSDLGTAERVEQVKVGEDYMTFVTGCKNPKAVSILVRGETEHVVDEMERSITDSLHVVASALEDGAYAAGGGATAAEIAFRLRSYAQKIGGRQQLAIEKFADAIEEIPRALAENAGLDPIDILLKLRAEHAKGNKTYGINVFTGEIEDMVKNGVIEPIRVGKQAIESATEAAIMILRIDDVIATKSSSSSSNPPKSGSSSESSED
2 | binds | – | – | Thermoplasma acidophilum thermosome β subunit T158A (protein, UniProt P48425 1-543) MIAGQPIFILKEGTKRESGKDAMKENIEAAIAISNSVRSSLGPRGMDKMLVDSLGDIVITNDGVTILKEMDVEHPAAKMMVEVSKTQDSFVGDGTTTAVIIAGGLLQQAQGLINQNVHPTVISEGYRMASEEAKRVIDEISTKIGADEKALLLKMAQASLNSKSASVAKDKLAEISYEAVKSVAELRDGKYYVDFDNIQVVKKQGGAIDDTQLINGIIVDKEKVHPGMPDVVKDAKIALLDAPLEIKKPEFDTNLRIEDPSMIQKFLAQEENMLREMVDKIKSVGANVVITQKGIDDMAQHYLSRAGIYAVRRVKKSDMDKLAKATGASIVSTIDEISSSDLGTAERVEQVKVGEDYMTFVTGCKNPKAVSILVRGETEHVVDEMERSITDSLHVVASALEDGAYAAGGGATAAEIAFRLRSYAQKIGGRQQLAIEKFADAIEEIPRALAENAGLDPIDILLKLRAEHAKGNKTYGINVFTGEIEDMVKNGVIEPIRVGKQAIESATEAAIMILRIDDVIATKSSSSSSNPPKSGSSSESSED
3 | binds | – | – | Thermoplasma acidophilum thermosome β subunit D93K (protein, UniProt P48425 1-543) MIAGQPIFILKEGTKRESGKDAMKENIEAAIAISNSVRSSLGPRGMDKMLVDSLGDIVITNDGVTILKEMDVEHPAAKMMVEVSKTQDSFVGKGTTTAVIIAGGLLQQAQGLINQNVHPTVISEGYRMASEEAKRVIDEISTKIGADEKALLLKMAQTSLNSKSASVAKDKLAEISYEAVKSVAELRDGKYYVDFDNIQVVKKQGGAIDDTQLINGIIVDKEKVHPGMPDVVKDAKIALLDAPLEIKKPEFDTNLRIEDPSMIQKFLAQEENMLREMVDKIKSVGANVVITQKGIDDMAQHYLSRAGIYAVRRVKKSDMDKLAKATGASIVSTIDEISSSDLGTAERVEQVKVGEDYMTFVTGCKNPKAVSILVRGETEHVVDEMERSITDSLHVVASALEDGAYAAGGGATAAEIAFRLRSYAQKIGGRQQLAIEKFADAIEEIPRALAENAGLDPIDILLKLRAEHAKGNKTYGINVFTGEIEDMVKNGVIEPIRVGKQAIESATEAAIMILRIDDVIATKSSSSSSNPPKSGSSSESSED
